Results published in PubChem BioAssay AID485314 (National Center for Advancing Translational Sciences (NCATS), 2010).
About 4,500 (1.3%) of roughly 340,000 compounds were called active. Inconclusive results, whose numbers are uncertain, are shown with a selection of clear calls. Calls come from the whole dose curve; as a rule, active = well fitted inhibition curve with a large enough effect; inconclusive = small, poorly fitted or top-dose-only effect, or another doubt; inactive = no such curve, though single readings can be large or run the other way. Potencies of inconclusive entries are doubtful fits and often do not repeat.

target: DNA polymerase beta (Homo sapiens) (UniProt P06746); test: qHTS Assay for Inhibitors of DNA Polymerase Beta; details: Pol beta primer extension/strand displacement, fluorescence kinetic; activity change, negative = inhibition: at 114 µM (top of the series)
How it was run: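 Human Pol beta at 10 nM; strand-displacement substrate 50 nM final. Compound exposure 15 min at room temperature before start, reaction 10 min at room temperature.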
% is set by controls: 0 for no effect and ±100 for the full control effect; potency is the fitted concentration of half-maximal effect.

Compound | activity change, negative = inhibition | Potency
CN1C(=O)C(CC(=O)Nc2ccc(Cl)cc2)N(Cc2ccco2)C1=S (configuration not stated) | inactive: -27.8% | –
CCN(CC)C(=S)Nc1ccc(Cl)c(Cl)c1 | – | inconclusive: 79.4 µM [inhibitor, single point]
Cc1ccc(NC(=O)CSc2nncn3c2cc2sccc23)cc1F | – | inconclusive: 1.12 µM [inhibitor, full curve, poor fit]
O=C(N/N=C\c1cc(Br)c(Br)o1)C1COc2ccccc2O1 (configuration not stated) | – | inconclusive: 11.2 µM [inhibitor, full curve]
CC(=O)Nc1ccc(NC(=O)CSc2nnc(NC(=O)c3ccc(Br)o3)s2)cc1 | – | active: 50.1 µM
O=C(Nc1ccc(Cl)c(Cl)c1)N(Cc1c[nH]c2ccccc12)C1CCCCC1 | – | inconclusive: 28.2 µM [inhibitor, full curve]
CC(=O)N1CCn2c3c(c4cc(C)ccc42)CCCC31 (configuration not stated) | inactive: 20.6% | –
CC(C)c1nc2oc3c(N4CCN(C)CC4)ncnc3c2c2c1CCC2 | – | active: 12.6 µM
COc1ccc(-c2ccc(NS(=O)(=O)c3cc([N+](=O)[O-])c(C)c([N+](=O)[O-])c3)cc2)nn1 | – | inconclusive: 100 µM [inhibitor, partial curve]
C=CCOc1c2ccc(C(=O)NC3CCCc4ccccc43)cc2nn1C (configuration not stated) | – | inconclusive: 17.8 µM [inhibitor, single point]
COc1ccc(S(=O)(=O)NCc2ccc3c(c2)CCN3C(C)=O)cc1OC | inactive: -7.74% | –
O=C(O)COc1ccc(/C=C/C(=O)c2ccc(C3CCCCC3)cc2)cc1 | – | inconclusive: 56.2 µM [inhibitor, partial curve, poor fit]
O=C(CCC(=O)N/N=C/c1ccc(Br)o1)N/N=C/c1ccc(Br)o1 | – | inconclusive: 20 µM [inhibitor, full curve]
CCOC(=O)c1cc(-c2ccc(OC)cc2)nn1-c1ccccc1C(=O)O | – | active: 3.16 µM
Cc1ccc(C(=O)Nc2nnc(S(=O)(=O)Nc3ccccc3C)s2)cc1C | – | inconclusive: 0.1 µM [inhibitor, full curve, poor fit]
CC(=O)c1ccc(NC(=O)CSc2nc(-c3ccccc3C)nc3c2c(=O)n(C)c(=O)n3C)cc1 | inactive: 2.95% | –
COc1ccccc1CNC(=O)c1cnccn1 | – | active: 39.8 µM
COc1ccc(Nc2ccc(Cl)cc2)c(C(=O)O)c1 | – | inconclusive: 89.1 µM [inhibitor, single point]
CCc1ccc(C2=NN(CCC(=O)NCCc3ccccc3)C(=O)CC2)cc1 | – | inconclusive: 89.1 µM [inhibitor, single point]
COc1ccc(NC(=O)Nc2cc(C)ccc2OC(F)F)c(OC)c1 | – | inconclusive: 89.1 µM [inhibitor, single point]
COC(=O)C1=CN(C(C)C)C=C(C(=O)OC)C1c1cc2c(cc1Br)OCO2 | – | inconclusive: 79.4 µM [inhibitor, single point]
CC1=[N+](C)c2ccc3ccccc3c2C1(C)C | inactive: 1.45% | –
O=[N+]([O-])c1ccc(C=Nc2ccc(Cl)c([N+](=O)[O-])c2)s1 | – | inconclusive: 2.51 µM [inhibitor, full curve, poor fit]
CCN(C(=O)CSc1nc2ccccc2c(=O)n1C(C)COC)C1CCS(=O)(=O)C1 (configuration not stated) | – | inconclusive: 28.2 µM [inhibitor, partial curve]

Compound | activity change, negative = inhibition | Potency
O=C(NCc1cccnc1)c1cc2nc(-c3cccs3)cc(C(F)(F)Cl)n2n1 | – | inconclusive: 39.8 µM [inhibitor, full curve]
COc1cc(/C=C/c2cc[n+](C)cc2)ccc1OCC(=O)Nc1ccc(Cl)c(Cl)c1 | – | active: 56.2 µM
CC(=O)c1c(COC(=O)c2ccco2)nc2ccccc2[n+]1[O-] | – | inconclusive: 31.6 µM [inhibitor, full curve]
CCOc1ccc(C(=O)NCCc2csc(-c3cccc(C)c3)n2)cc1 | – | inconclusive: 44.7 µM [inhibitor, partial curve]
CCOC(=O)c1cccc(NC(=O)CN(C)S(=O)(=O)c2cnc[nH]2)c1 | – | inconclusive: 39.8 µM [inhibitor, partial curve]
O=C(CNC(=O)c1ccc(Cl)cc1)N/N=C/c1cccnc1 | inactive: 19.9% | –
Cc1ccc(-c2ccc(C3C(C#N)=C(N)Oc4n[nH]c(C)c43)o2)cc1 (configuration not stated) | inactive: -19.8% | –
O=C(CSc1nc2scc(-c3ccco3)c2c(=O)n1-c1ccccc1)NCC1CCCO1 (configuration not stated) | – | active: 11.2 µM
CC(NC(=O)c1cc2ccccc2o1)c1cccs1 (configuration not stated) | – | inconclusive: 20 µM [inhibitor, partial curve, poor fit]
O=C(O)c1ccc2c(c1)C(=O)N(c1ncccn1)C2=O | – | inconclusive: 50.1 µM [inhibitor, partial curve]
Cc1ccc(-c2nc(NC(=O)CSc3nnc4scc(-c5ccccc5)n34)ns2)cc1 | – | inconclusive: 25.1 µM [inhibitor, partial curve, poor fit]
Cn1c(/C=N/NC(=O)c2ccccc2)nc2ccccc21 | – | inconclusive: 56.2 µM [inhibitor, partial curve]
Cc1cccc(CNS(=O)(=O)c2ccc(-c3coc(C)n3)cc2)c1 | – | inconclusive: 89.1 µM [inhibitor, single point]
Clc1ccc(CSc2nncn3c2cc2occc23)cc1 | – | active: 31.6 µM
O=c1c2cccc3c(N4CCOCC4)ccc(c32)c2nc3ccccc3n12 | – | inconclusive: 39.8 µM [inhibitor, partial curve, poor fit]
Cn1c(=O)c2c(nc(SCC(=O)NCc3ccc4c(c3)OCO4)n2Cc2ccccc2)n(C)c1=O | – | inconclusive: 70.8 µM [inhibitor, single point]
Cc1ccccc1N1CCN(C2CCCN(C(=O)CCn3cnnn3)C2)CC1 (configuration not stated) | – | active: 35.5 µM
CCOc1ccc(N(C)C(=O)CCc2nnc3ccc(NCc4ccco4)nn23)cc1 | inactive: 2.49% | –
COc1ccc(NC(=O)c2ccc(COc3ccccc3)o2)c(OC)c1 | inactive: 1.24% | –
COc1ccc(C(=O)Nc2ccc(NC(=O)c3ccco3)cc2)cc1 | inactive: -18.2% | –
O=C1N=C(N2CCCC2)S/C1=C\c1cn[nH]c1-c1ccccc1 | inactive: 32.4% | –
Cc1ccc(F)cc1NC(=O)Cc1nn(C)c(=O)c2ccccc12 | – | inconclusive: 3.98 µM [inhibitor, full curve, poor fit]
CCOC(=O)C1(CCCc2ccccc2)CCN(C(=O)c2ccoc2)CC1 | – | inconclusive: 3.16 µM [inhibitor, single point]
Cc1ccc(NC(=O)CCC(=O)N/N=C/c2ccc([N+](=O)[O-])o2)cc1C | inconclusive: -66% [inhibitor] | –

4 entries from above, as labelled records:
O=C(CNC(=O)c1ccc(Cl)cc1)N/N=C/c1cccnc1
  activity change, negative = inhibition: inactive: 19.9%
O=C(O)c1ccc2c(c1)C(=O)N(c1ncccn1)C2=O
  Potency: inconclusive: 50.1 µM [inhibitor, partial curve]
COc1ccc(NC(=O)c2ccc(COc3ccccc3)o2)c(OC)c1
  activity change, negative = inhibition: inactive: 1.24%
O=C1N=C(N2CCCC2)S/C1=C\c1cn[nH]c1-c1ccccc1
  activity change, negative = inhibition: inactive: 32.4%

(continued)

Compound | activity change, negative = inhibition | Potency
CC1=C(c2ccc(Cl)cc2)S(=O)(=O)N=C1N1CCN(c2cc(C)ccc2C)CC1 | – | inconclusive: 56.2 µM [inhibitor, single point]
Cc1ccc(C(=O)O)cc1NC(=S)NC(=O)c1ccc([N+](=O)[O-])cc1Cl | inactive: 4.77% | –
O=C(COC(=O)CC12CC3CC(CC(C3)C1)C2)Nc1ncc(Cl)cc1Cl | – | inconclusive: 39.8 µM [inhibitor, partial curve]
CCOC(=O)N1CCC(N(CCN(C)C)C(=S)Nc2ccc(Oc3ccccc3)cc2)CC1 | inactive: -21.7% | –
Cc1c(/C=N/NC(=O)c2cccnc2)c2ccccn2c1C(=O)c1ccc(F)cc1 | – | inconclusive: 89.1 µM [inhibitor, single point]
CCCCCCNC(=O)c1cc(-c2ccco2)nc2ccccc12 | – | active: 7.94 µM
CN(C)c1ccc(/C=C2\SC(=O)N(CCc3nnc(N)s3)C2=O)cc1 | inconclusive: -37% [inhibitor] | –
O=c1cc(CSc2nnnn2-c2ccccc2)nc(Nc2ccc(F)cc2)[nH]1 | – | active: 44.7 µM
Cn1cccc1-c1cc(C(=O)N/N=C/c2ccccc2Cl)[nH]n1 | inconclusive: -38.6% [inhibitor] | –
Cc1cc(NS(=O)(=O)c2ccc(NC(=O)CCCOc3ccccc3C)cc2)nc(C)n1 | inactive: -13.2% | –
CCOC(=O)c1c(NC(=O)COc2ccccc2)sc(C(C)=O)c1C | – | inconclusive: 100 µM [inhibitor, single point]
O=C(Nc1ccc(Cl)c(Cl)c1)Nc1ccccc1O | – | inconclusive: 25.1 µM [inhibitor, full curve, poor fit]
Cc1ccc(NC(=O)C2CCN(S(=O)(=O)c3ccc4c(c3)NC(=O)C(C)S4)CC2)cc1Cl (configuration not stated) | inactive: -2.58% | –
O=[N+]([O-])c1cc(/C=N/Nc2nc3ccccc3[nH]2)c(O)cc1O | – | active: 20 µM
CCOc1cccc2cc(-c3nnc(NCc4ccco4)s3)c(=O)oc12 | – | inconclusive: 50.1 µM [inhibitor, partial curve, poor fit]
O=[N+]([O-])c1ccc(Nc2nc(Cl)nc(NCCO)n2)cc1 | inactive: 2.83% | –
CC(NS(=O)(=O)c1ccc(OCC(=O)NCc2ccncc2)cc1)c1ccccc1 (configuration not stated) | – | inconclusive: 89.1 µM [inhibitor, single point]
CCN(CC)Cc1cc(O)c(CN(CC)CC)cc1O | – | active: 3.55 µM
COC(=O)c1ccccc1NC(=O)C(Cc1ccccc1)N1Cc2ccccc2C1=O (configuration not stated) | – | inconclusive: 89.1 µM [inhibitor, single point]
COc1c(C(=O)NNC(=O)c2ccccc2)csc1Br | – | inconclusive: 63.1 µM [inhibitor, single point]
COc1ccc(C2CC(c3ccccc3)Nc3nc(N)nn32)cc1 (configuration not stated) | – | inconclusive: 89.1 µM [inhibitor, single point]
O=C(O)CSc1nc(-c2ccccc2)nc2c1oc1ccccc12 | inactive: -1.36% | –
CCS(=O)(=O)N1CCC(NC(=O)C(Cc2cc(OC)ccc2OC)NC(C)=O)CC1 (configuration not stated) | inactive: -15.9% | –
CC(=O)N1CCc2c(sc3c2c(=O)n(CCc2ccccc2)c(=O)n3Cc2ccccc2C)C1 | – | inconclusive: 1.12 µM [inhibitor, full curve, poor fit]
